The results in this text go back to publication PMC5323126.

By UniProt entry, the sequences of proteins in these tests, tags left out.
UniProt Q14258: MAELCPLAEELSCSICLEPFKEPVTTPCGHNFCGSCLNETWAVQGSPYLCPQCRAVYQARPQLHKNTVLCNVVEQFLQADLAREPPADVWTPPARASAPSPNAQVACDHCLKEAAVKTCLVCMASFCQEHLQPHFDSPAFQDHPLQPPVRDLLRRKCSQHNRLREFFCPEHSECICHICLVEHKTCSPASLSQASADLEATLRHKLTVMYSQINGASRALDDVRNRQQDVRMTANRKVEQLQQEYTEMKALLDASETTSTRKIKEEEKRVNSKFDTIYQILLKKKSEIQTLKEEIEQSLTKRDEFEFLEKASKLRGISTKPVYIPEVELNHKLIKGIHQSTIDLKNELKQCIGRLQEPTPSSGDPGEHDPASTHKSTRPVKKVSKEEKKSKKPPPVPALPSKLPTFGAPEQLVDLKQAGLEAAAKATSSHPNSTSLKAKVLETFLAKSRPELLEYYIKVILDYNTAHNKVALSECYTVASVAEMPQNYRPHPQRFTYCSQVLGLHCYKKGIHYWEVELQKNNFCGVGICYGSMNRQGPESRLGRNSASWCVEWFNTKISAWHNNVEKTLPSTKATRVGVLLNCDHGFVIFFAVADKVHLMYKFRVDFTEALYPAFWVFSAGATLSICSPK

The target in the assay is T1, ERG-V5 (full-length Ets related gene protein, V5-tagged) (UniProt P11308).
T1 sequence: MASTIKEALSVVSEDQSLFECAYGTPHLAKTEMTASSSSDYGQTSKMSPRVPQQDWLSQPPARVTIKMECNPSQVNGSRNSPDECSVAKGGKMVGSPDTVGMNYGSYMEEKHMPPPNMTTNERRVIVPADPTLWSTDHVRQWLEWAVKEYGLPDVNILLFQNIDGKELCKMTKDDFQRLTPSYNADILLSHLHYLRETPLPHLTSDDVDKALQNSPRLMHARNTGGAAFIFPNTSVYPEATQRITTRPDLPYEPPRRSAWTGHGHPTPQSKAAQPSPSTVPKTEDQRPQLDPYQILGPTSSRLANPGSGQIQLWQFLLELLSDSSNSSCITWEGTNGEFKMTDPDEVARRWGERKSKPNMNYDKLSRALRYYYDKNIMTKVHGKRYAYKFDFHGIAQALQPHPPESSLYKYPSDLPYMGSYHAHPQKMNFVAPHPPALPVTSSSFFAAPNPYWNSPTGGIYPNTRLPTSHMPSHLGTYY
Description: affinity purification with mass spectrometry; ERG-V5 immunoprecipitated from HEK293T with a V5 antibody as bait; VCaP whole cell extract; eluted proteins separated by SDS-PAGE, HPLC/MS/MS of tryptic peptides; only the target purified.

No constants are given. Whether binding was seen depends on the method and setting. Binding seen in cells or lysates may run through a third protein. Here binding means that the protein was enriched with, or labelled near, the bait; the list need not be complete. Tags and fused reporters may be left off the sequences shown.

For “Tripartite motif-containing protein 25 (TRIM25), endogenous in VCaP cells (from UniProt Q14258 1-630)”, the binding entry was “binds”.
